Reference: paper PMC2098691, “Regulation of the Xenopus Xsox17α1 promoter by co-operating VegT and Sox17 sites”

Biological target: Xsox17 (Xenopus laevis)
Assay: co-IP; immunological co-precipitation, told only in the discussion with no data shown; no conditions given

B1: VegT (protein, UniProt P87377 1-455)
chain: MRNCCRECGLSAGHLEPEASSNCASDVKSSPDMDSVSSQDSLYLPNTVGASLEDQDLWSQFHQEGTEMIITKSGRRMFPQCKIRLFGLHPYAKYMLLVDFVPLDNFRYKWNKNQWEAAGKAEPHPPCRTYVHPDSPAPGAHWMKDPICFQKLKLTNNTLDQQGHIILHSMHRYKPRFHVVQSDDMYNSPWGLVQVFSFPETEFTSVTAYQNEKITKLKINHNPFAKGFREQERSHKRDDVLKILQQSPSKRQKRKKWEDSPEADISDFPKAICVKEESIMDPAGVYQNWVSDHEANQGLTPHSPESEGANQEQQVPTSSSNFYNKSHYRRSSQHLSSPFELGEPSSRRLTPDIATVPDSDPDSLAVFHVIPTQNSAPERTCSMNFSMEAPMKQPLRGAMYSPYGADQWLVPAQGQYRPVGYTAYPTDLSTQGAVAHPHSAMSDWSQYSLFPYSCW
**Q.** B1 was tested. Which binding did it give?
**A.** no binding

Results are given in words; binding and its absence hold for the method and conditions named. In cells and extracts the contact can be indirect.
